Experimental data from the supplement of paper PMC8090911.
Where a name gives a salt, the structure may show the parent alone. The list shows a part of the results. Repeats are few or missing, and single values can be far off.

system: p95-ErbB2-MCF7; assay: perinuclear lysosome accumulation (PNLA, size of LAMP2 puncta), robust Z-score vs plate median; higher = more perinuclear lysosome accumulation (reversal of invasive lysosome distribution); conditions: 5 µM; 24 h

Structure (SMILES) | perinuclear lysosome accumulation
CN(C)CCCN1c2ccccc2CCc2ccc(Cl)cc21 [Clomipramine hydrochloride] | 1.12
Cc1cc(NC(=O)C2=C(O)c3ccccc3S(=O)(=O)N2C)no1 [Isoxicam] | -0.695
Cc1cc(C(C)(C)CC(C)(C)C)ccc1OCCOCC[N+](C)(C)Cc1ccccc1 [Methyl benzethonium chloride] | 5.02
CN1CCN(CCCN2c3ccccc3Sc3ccc(S(=O)(=O)N(C)C)cc32)CC1 [Thioproperazine dimesylate] | 2.13
O=C(O)Cc1ccccc1Nc1c(Cl)cccc1Cl [Diclofenac sodium] | -2.18
CC(=O)Oc1cc(C(F)(F)F)ccc1C(=O)O [Triflusal] | 0.567
CS(=O)(=O)c1ccc([C@@H](O)[C@@H](CO)NC(=O)C(Cl)Cl)cc1 [Thiamphenicol] | 0.694
CC(C)Cc1ccc([C@H](C)C(=O)O)cc1 [S-(+)-ibuprofen] | -0.434
C[C@]12C=CC(=O)C=C1CC[C@@H]1[C@@H]2[C@@H](O)C[C@@]2(C)[C@H]1CC[C@]2(O)C(=O)CO [Prednisolone] | -1.02
O=c1[nH]cc(F)c(=O)[nH]1 [5-fluorouracil] | -3.61
O=C1C(CC[S+]([O-])c2ccccc2)C(=O)N(c2ccccc2)N1c1ccccc1 (configuration not stated) [Sulfinpyrazone] | 0.27
NS(=O)(=O)c1cc2c(cc1Cl)N=C(CSCc1ccccc1)NS2(=O)=O [Benzthiazide] | 1.18
CC(=O)O[C@]1(C(C)=O)CC[C@H]2[C@@H]3C=C(C)C4=CC(=O)CC[C@@H]4[C@H]3CC[C@@]21C [Nomegestrol acetate] | -0.248
COC(=O)[C@H]1[C@H]2C[C@@H]3c4[nH]c5cc(OC)ccc5c4CCN3C[C@H]2C[C@@H](OC(=O)c2cc(OC)c(OC)c(OC)c2)[C@@H]1OC [Reserpine] | 0.29
CCOC(=O)Nc1ccc2c(c1)N(C(=O)CCN1CCOCC1)c1ccccc1S2 [Moricizine hydrochloride] | -3.1
CC(C)NCC(O)c1ccc(NS(C)(=O)=O)cc1 (configuration not stated) [Sotalol hydrochloride] | 0.403
C#C[C@]1(O)CC[C@H]2[C@@H]3CCc4cc(OC)ccc4[C@H]3CC[C@@]21C [Ethynylestradiol 3-methyl ether] | 0.406
CC(=O)N1CCN(c2ccc(OCC3COC(Cn4ccnc4)(c4ccc(Cl)cc4Cl)O3)cc2)CC1 (configuration not stated) [Ketoconazole] | 2.58
CCN(CC)CCCC(C)Nc1c2ccc(Cl)cc2nc2ccc(OC)cc12 (configuration not stated) [Quinacrine dihydrochloride dihydrate] | 8.01
CCCCCCCCCCCCCCCC[N+](C)(C)CCN(Cc1ccc(OC)cc1)c1ncccn1 [Thonzonium bromide] | 4.43
CS(=O)(=O)Nc1ccc([N+](=O)[O-])cc1Oc1ccccc1 [Nimesulide] | 0.15
COc1cc(C)nc(-n2nc(C)cc2OC)n1 [Epirizole] | -0.564
CCn1cc(C(=O)O)c(=O)c2cc(F)c(N3CCNC(C)C3)c(F)c21 (configuration not stated) [Lomefloxacin hydrochloride] | -1.01
CNC(=C[N+](=O)[O-])NCCSCc1csc(CN(C)C)n1 [Nizatidine] | -2.21

Structure (SMILES) | perinuclear lysosome accumulation
C[C@]12C=CC(=O)C=C1CC[C@@H]1[C@@H]2C(=O)C[C@@]2(C)[C@H]1CC[C@]2(O)C(=O)CO [Prednisone] | -1.35
C[C@@H]1CN(c2c(F)c(N)c3c(=O)c(C(=O)O)cn(C4CC4)c3c2F)C[C@H](C)N1 [Sparfloxacin] | 1.49
CC[C@]12CCCN3CCc4c(n(c5ccccc45)C(=O)C1)[C@@H]32 [Eburnamonine (-)] | 0.936
CCn1cc(C(=O)O)c(=O)c2cc(F)c(N3CCN(C)CC3)cc21 [Pefloxacine] | -2.27
CCc1cc(C(N)=S)ccn1 [Ethionamide] | -1
CCC(=O)[C@@]1(C)[C@H](C)C[C@H]2[C@@H]3CCC4=CC(=O)C=C[C@]4(C)[C@H]3[C@@H](O)C[C@@]21C [Rimexolone] | -0.461
CN(N=O)C(=O)N[C@@H](C=O)[C@@H](O)[C@H](O)[C@H](O)CO [Streptozotocin] | 0.36
O=C(N/N=C/c1ccc([N+](=O)[O-])o1)c1ccc(O)cc1 [Nifuroxazide] | -1.26
CN1CCN(C(c2ccccc2)c2ccc(Cl)cc2)CC1 (configuration not stated) [Chlorcyclizine hydrochloride] | 1.4
O=C1C=CC(=O)c2c1ccc1c2ccc2ccccc21 [Chrysene-1,4-quinone] | -2.89
CC(C)(O/N=C(\C(=O)N[C@@H]1C(=O)N2C(C(=O)[O-])=C(C[n+]3ccccc3)CS[C@H]12)c1csc(N)n1)C(=O)O [Ceftazidime pentahydrate] | -1.43
Cc1c(Cl)cccc1Nc1ncccc1C(=O)O [Clonixin Lysinate] | 0.902
C[C@H]1[C@H](NC(=O)/C(=N\OC(C)(C)C(=O)O)c2csc(N)n2)C(=O)N1S(=O)(=O)O [Aztreonam] | 0.0653
CNCCC=C1c2ccccc2CCc2ccccc21 [Nortriptyline hydrochloride] | 4.39
CCc1c2c(nc3ccc(OC(=O)N4CCC(N5CCCCC5)CC4)cc13)-c1cc3c(c(=O)n1C2)COC(=O)[C@]3(O)CC [Irinotecan Hydrochloride] | 1.92
COc1cc2nc(N3CCN(C(=O)C4CCCO4)CC3)nc(N)c2cc1OC (configuration not stated) [Terazosin hydrochloride] | 0.0587
Nc1ccc(S(=O)(=O)Nc2ccc(Cl)nn2)cc1 [Sulfachloropyridazine] | -0.18
CN(C)CCCOc1nn(Cc2ccccc2)c2ccccc12 [Benzydamine hydrochloride] | -0.415
C#C[C@]1(O)CC[C@H]2[C@@H]3[C@H](C)CC4=C(CCC(=O)C4)[C@H]3CC[C@@]21C [Tibolone] | -1.68
CC(=O)OCC(=O)[C@@]1(O)CC[C@H]2[C@@H]3CCC4=CC(=O)C=C[C@]4(C)[C@@]3(F)[C@@H](O)C[C@@]21C [Isoflupredone acetate] | -1.1
CC(=O)Oc1cc(C(C)C)c(OCCN(C)C)cc1C [Moxisylyte hydrochoride] | -0.15
CC(c1cc2ccccc2s1)N(O)C(N)=O (configuration not stated) [Zileuton] | 2.74
COc1cc(C)c(/C=C/C(C)=C/C=C/C(C)=C/C(=O)O)c(C)c1C [Acitretin] | -0.274
CN(C)CCC=C1c2ccccc2C=Cc2ccccc21 [Cyclobenzaprine hydrochloride] | 0.972

Not a retest: two of the compounds above.
Structure (SMILES) | perinuclear lysosome accumulation
CC[C@]12CCCN3CCc4c(n(c5ccccc45)C(=O)C1)[C@@H]32 [Eburnamonine (-)] | 0.936
CCn1cc(C(=O)O)c(=O)c2cc(F)c(N3CCN(C)CC3)cc21 [Pefloxacine] | -2.27

Continuation.

Structure (SMILES) | perinuclear lysosome accumulation
C[N+]1(C)CCC(=C(c2ccccc2)c2ccccc2)CC1 [Diphemanil methylsulfate] | -0.705
NS(=O)(=O)c1cc2c(cc1Cl)NCNS2(=O)=O [Hydrochlorothiazide] | -2.54
CNNCc1ccc(C(=O)NC(C)C)cc1 [Procarbazine hydrochloride] | -1.99
O=c1[nH]c(=O)n([C@H]2C[C@H](O)[C@@H](CO)O2)cc1F [Floxuridine] | 0.478
CC(=O)Oc1cccc2c1C(=O)c1c(OC(C)=O)cc(C(=O)O)cc1C2=O [Diacerein] | 0.213
C=C1C[C@H]2[C@@H]3C=C(C)C4=CC(=O)CC[C@]4(C)[C@H]3CC[C@]2(C)[C@@]1(OC(C)=O)C(C)=O [Melengestrol acetate] | -2.38
Nc1ccc(S(=O)(=O)c2ccc(N)cc2)cc1 [Dapsone] | 2.29
OC[C@H]1O[C@@H](Oc2ccc(O)cc2)[C@H](O)[C@@H](O)[C@@H]1O [Arbutin] | -0.526
N=C(N)NCC1COC2(CCCCC2)O1 (configuration not stated) [Guanadrel sulfate] | -1.17
CC1(C)OC(=O)NC1=O [Dimethadione] | -1.21
Nc1ccc(C(=O)NCC(=O)O)cc1 [Aminohippuric acid] | 0.956
COc1ccc(NS(=O)(=O)c2ccc(N)cc2)nn1 [Sulfamethoxypyridazine] | 0.0462
Cn1nnnc1SCC1=C(C(=O)O)N2C(=O)[C@@H](NC(=O)[C@H](O)c3ccccc3)[C@H]2SC1 [Cefamandole sodium salt] | -0.054
CCC[C@H](N[C@@H](C)C(=O)N1[C@H](C(=O)O)C[C@@H]2CCCC[C@@H]21)C(=O)OCC [Perindopril] | -2.66
CO[C@@H]1[C@@H](OC(N)=O)[C@@H](O)[C@H](Oc2ccc3c(O)c(NC(=O)c4ccc(O)c(CC=C(C)C)c4)c(=O)oc3c2C)OC1(C)C [Novobiocin sodium salt] | 1.17
CCN1CCN(C(=O)N[C@@H](C(=O)N[C@@H]2C(=O)N3[C@@H]2SC(C)(C)[C@@H]3C(=O)O)c2ccccc2)C(=O)C1=O [Piperacillin sodium salt] | 0.0643
CN(C)CCC[C@@]1(c2ccc(F)cc2)OCc2cc(C#N)ccc21 [Escitalopram] | 0.666
CCCC(=O)Nc1ncnc2c1ncn2[C@@H]1O[C@@H]2COP(=O)(O)O[C@H]2[C@H]1OC(=O)CCC [Bucladesine sodium salt] | -0.00782
CN1CCCC(n2nc(Cc3ccc(Cl)cc3)c3ccccc3c2=O)CC1 (configuration not stated) [Azelastine HCl] | 2.59
CN1CCCCC1CCN1c2ccccc2Sc2ccc([S+](C)[O-])cc21 (configuration not stated) [Mesoridazine besylate] | 1.19
NC(=O)N/N=C/c1ccc([N+](=O)[O-])o1 [Nitrofural] | -0.678
COc1ccc2[nH]cc(CCNC(C)=O)c2c1 [Melatonin] | -0.00768
NC[C@H]1O[C@H](O[C@H]2[C@H](O[C@@H]3O[C@H](CO)[C@@H](O)[C@H]3O)[C@@H](O)[C@H](N)C[C@@H]2N)[C@H](N)[C@@H](O)[C@@H]1O [Ribostamycin sulfate salt] | 0.024
COc1ccc(C(=O)NCc2cccnc2)cc1C(=O)NCc1cccnc1 [Picotamide monohydrate] | -0.352
